Measurements from the supplement of paper PMC3334620.
In all, about 33,000 sequences were measured (“E-score (-0.5 to 0.5)”: median about -0.0034, highest 2% from about 0.25 on). The list shows a part of the results.

Each sequence was assayed against T1, Yap3 (UniProt P38749) (assay: PBM E-score (8-mer binding enrichment) (E-score (-0.5 to 0.5)); higher = stronger / more preferred TF binding). Settings: protein concentration: 100 nM; construct: GST-full length.
T1 sequence: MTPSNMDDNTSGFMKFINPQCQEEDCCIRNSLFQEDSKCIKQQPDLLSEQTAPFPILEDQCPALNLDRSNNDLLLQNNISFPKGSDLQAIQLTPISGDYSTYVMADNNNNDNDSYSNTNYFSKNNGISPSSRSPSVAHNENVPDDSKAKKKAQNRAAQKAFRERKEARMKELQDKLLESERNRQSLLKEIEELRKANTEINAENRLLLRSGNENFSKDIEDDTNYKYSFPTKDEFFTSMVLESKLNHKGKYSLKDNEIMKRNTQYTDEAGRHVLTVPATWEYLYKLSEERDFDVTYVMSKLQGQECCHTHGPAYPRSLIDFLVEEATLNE
Method in brief: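 Full-length yeast transcription factors or their DNA-binding domains, GST-tagged and expressed with PURExpress, were applied at about 100-200 nM to universal all-10-mer Agilent arrays. These arrays had been made double-stranded by primer extension on fresh or once-stripped slides. Detection used fluorescent anti-GST, normalisation used masliner, and E-scores for ungapped eight-base words pooled with reverse complements came from the Universal PBM Analysis Suite.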

Row | Sequence | PBM E-score
1 | TAGGAGGA | -0.131
2 | CACCCGCC | -0.00919
3 | CTAGGCTC | -0.278
4 | ACCGCGTG | -0.184
5 | CGTCCAAC | 0.0756
6 | ATATATAT | 0.231
7 | GCTCACAA | 0.0362
8 | ATATCAAC | 0.166
9 | CAGCATGA | -0.0544
10 | AAATATCT | 0.149
11 | ACCGGGTA | -0.034
12 | GTCCCGAA | -0.152
13 | AAGACACA | -0.133
14 | AGAACGAG | 0.0754
15 | TCCAGGCA | 0.0398
16 | CGATGTCA | -0.0979
17 | ACGTCTCT | -0.138
18 | AACGCTAG | -0.236
19 | CCATCATC | 0.0379
20 | GTGCCTCA | -0.275
21 | GGTGGAAA | -0.0239
22 | GGCTTCGA | 0.00044
23 | CACAAAGA | 0.0747
24 | ACGTAGAT | 0.131
25 | AGGACCAC | -0.172

Quoted from the listing:
In PBM E-score, AACGCTAG is entered as -0.236
In PBM E-score, ACCGCGTG is entered as -0.184

(next part)

Row | Sequence | PBM E-score
26 | GATTCCAC | 0.0304
27 | GGCGGGAC | -0.22
28 | ACCTCGTC | -0.0365
29 | CGCGCCAG | -0.207
30 | GTCCTTTA | -0.109
31 | AAGGTGAC | -0.0903
32 | AAAGATTC | 0.0893
33 | CTAACATA | 0.204
34 | GTCGCAAC | 0.138
35 | GGATAATA | 0.0461
36 | CAATACTC | 0.247
37 | ATGAGCTC | -0.107
38 | CGATGGGC | -0.18
39 | CTAGAAAA | 0.101
40 | CTCTGTTC | 0.0348
41 | CACGCGGC | 0.0723
42 | GCTAAAGA | 0.128
43 | TCTGATAA | 0.116
44 | TATCCAAA | 0.189
45 | GGTAAAAA | 0.0596
46 | ACTGTCGC | -0.0888
47 | AAGGACAC | -0.0338
48 | CCCAAGCA | -0.0628
49 | CATACAGC | -0.0905
50 | GAAGCTCC | -0.0847

Row | Sequence | PBM E-score
51 | AGTCGTAA | 0.2
52 | GCCACGGC | -0.145
53 | GGGAGCAA | -0.201
54 | GCTCCAGC | -0.037
55 | CCTCTCTA | -0.359
56 | CTCTTGTA | 0.00253
57 | GGCACGGA | -0.164
58 | CTCCATAC | -0.0796
59 | ACACTAGG | 0.0672
60 | GACGCTTA | -0.193
61 | GCGCGTGA | 0.0681
62 | AAAACCAC | 0.0635
63 | GGGTACAC | -0.129
64 | GATAGGGC | -0.203
65 | GCGATTTA | 0.0749
66 | AGCTGGCC | -0.0947
67 | AAAGGAAT | 0.0347
68 | AGCCACTG | -0.0224
69 | CATCCTAC | 0.0202
70 | GAATCTAA | 0.101
71 | CCCCCGAA | -0.199
72 | TAGTCACA | 0.215
73 | CCCGTATC | -0.2
74 | CTAAGGAG | -0.0861
75 | GCCGGAAA | 0.0689

Looked up one by one from above, 3 records:
Row | Sequence | PBM E-score
62 | AAAACCAC | 0.0635
54 | GCTCCAGC | -0.037
57 | GGCACGGA | -0.164

Carrying on:

Row | Sequence | PBM E-score
76 | GAGCCTCA | -0.19
77 | GGTTGCAC | -0.0143
78 | ACGGCTAT | -0.0939
79 | CCGTTGTC | 0.0985
80 | AAAATTGG | 0.175
81 | GGGCTCGA | -0.113
82 | AACACAGA | 0.0145
83 | GGTGGTTA | -0.0196
84 | CAGTAGAC | 0.0368
85 | GAATTAAC | 0.169
86 | CTGGTTGC | 0.0829
87 | CACGGCGC | -0.0839
88 | AATAGAAT | 0.114
89 | GGTACACC | -0.114
90 | ATCACTAG | -0.0737
91 | CCATCGTC | -0.01
92 | CACTGGTA | 0.0635
93 | GTACGCAC | -0.0905
94 | GAGTCCAA | 0.00148
95 | CAGCTGTA | -0.0416
96 | TATTCGAA | 0.137
97 | CACCGGTA | -0.11
98 | TGACGGCA | -0.119
99 | CAACAGAC | 0.0249
100 | AATGTACT | 0.125

Row | Sequence | PBM E-score
101 | CTAGTCCC | -0.136
102 | CAGAAAAC | 0.133
103 | GTCAACAC | 0.00939
104 | ACGGCTCG | 0.0605
105 | AATTGCCC | 0.0007
106 | ACTTCTCT | -0.0355
107 | CTGACTTA | 0.16
108 | ACTGTCAA | 0.118
109 | ATGGTGCA | 0.0162
110 | ATAGAGCG | -0.0662
111 | CTTGAGTC | -0.145
112 | GAGACGGA | 0.0162
113 | TACCGTGA | -0.0317
114 | CTTACATC | 0.077
115 | CCAGAACG | 0.048
116 | ACCGGTCA | -0.0676
117 | ATCGCCCG | -0.262
118 | AGCAGGCT | -0.268
119 | ATGATAAC | 0.159
120 | GGCTTCCA | -0.271
121 | ACAACGTC | -0.14
122 | ATGCAACG | 0.00916
123 | AGGTATGA | 0.168
124 | GGATTCCA | 0.14
125 | CACGGGTC | -0.106

Row | Sequence | PBM E-score
126 | CGCCCCTC | -0.333
127 | CACCATGA | -0.00372
128 | ATCACATA | 0.214
129 | CAGATCTA | -0.121
130 | GACGGTAC | 0.0228
131 | GATGAGCC | -0.131
132 | AAATGATG | 0.168
133 | AACGACAA | 0.0824
134 | GACGGAGC | -0.217
135 | ACAATCAA | 0.174
136 | CCCTAGCG | -0.333
137 | AATGCTCA | 0.0457
138 | CTCCCTAA | -0.136
139 | AGCGAAGG | -0.144
140 | CCGTTATC | 0.0476
141 | ATCGGTGA | 0.144
142 | CACATTCG | 0.0393
143 | AGTCCACG | -0.215
144 | ATTACCGA | 0.247
145 | AGATTATC | 0.0919
146 | AATTGCTC | 0.00272
147 | ACTGATCA | 0.131
148 | ATGACCGC | -0.00708
149 | CTTTCCGA | -0.0334
150 | CGCGAACA | 0.0182

Row | Sequence | PBM E-score
151 | CATCGCAG | -0.192
152 | GCCGTCCA | 0.00485
153 | AGACGCTG | -0.136
154 | GGGTGTTA | 0.0449
155 | CCGCTTTA | 0.11
156 | GCCCGAAA | 0.189
157 | ATAGATTA | 0.348
158 | AGCTCTAC | 0.0914
159 | ACTAGCAG | 0.104
160 | CTGTAGTC | -0.108
161 | CCGAGAAA | 0.225
162 | ATGCTGCC | 0.00746
163 | ATACTAAG | 0.0625
164 | CCTTGCCA | -0.0387
165 | GAATTCCC | -0.0312
166 | GCCTCTAC | -0.0717
167 | GAAGCGCA | -0.0437
168 | GTCGTAAC | 0.0313
169 | AGCCCTTA | -0.0423
170 | ACCGATAA | 0.156
171 | CCAGCAGC | -0.172
172 | AGGGTCAA | 0.0461

In a second layout: results already given
GCGATTTA
  PBM E-score: 0.0749
ATGACCGC
  PBM E-score: -0.00708
